Assay [1] has as its target recombinant human EphA5 (rhEphA5) antigen (human) (UniProt P54756). Kind of assay: SPR (Biacore T200) single-cycle kinetics, supernatant IgG captured on anti-human IgG chip, rhEphA5 as analyte. A general note: SPR reads the build-up and loss of mass on a sensor chip optically.
Assay [2] shares this target. The assay can be described thus: SPR (Biacore T200) multi-cycle kinetics, purified IgG captured on anti-human IgG chip, recombinant EphA5 as analyte.
Assay [3] has the same target. The assay can be described thus: SPR single-cycle kinetics (Biacore T200), antibody captured on anti-human IgG CM5 chip, rising concentrations of rhEphA5 injected, raw and 1:1-fitted curves.
Assay [4] has the same target. Kind of assay: SPR multi-cycle kinetics (Biacore T200), IgG captured on anti-human IgG chip, rising concentrations of human EphA5 injected, raw and 1:1-fitted curves [continued].
For assay [5] the target is unchanged. Kind of assay: SPR multi-cycle kinetics (Biacore T200), IgG captured on anti-human IgG chip, rising concentrations of human EphA5 injected, raw and 1:1-fitted curves.

By UniProt entry, the sequences of proteins in these tests, tags left out. Where a name states a change or a piece, a line headed by the entry shows the natural chain unless it says otherwise.
UniProt P54756: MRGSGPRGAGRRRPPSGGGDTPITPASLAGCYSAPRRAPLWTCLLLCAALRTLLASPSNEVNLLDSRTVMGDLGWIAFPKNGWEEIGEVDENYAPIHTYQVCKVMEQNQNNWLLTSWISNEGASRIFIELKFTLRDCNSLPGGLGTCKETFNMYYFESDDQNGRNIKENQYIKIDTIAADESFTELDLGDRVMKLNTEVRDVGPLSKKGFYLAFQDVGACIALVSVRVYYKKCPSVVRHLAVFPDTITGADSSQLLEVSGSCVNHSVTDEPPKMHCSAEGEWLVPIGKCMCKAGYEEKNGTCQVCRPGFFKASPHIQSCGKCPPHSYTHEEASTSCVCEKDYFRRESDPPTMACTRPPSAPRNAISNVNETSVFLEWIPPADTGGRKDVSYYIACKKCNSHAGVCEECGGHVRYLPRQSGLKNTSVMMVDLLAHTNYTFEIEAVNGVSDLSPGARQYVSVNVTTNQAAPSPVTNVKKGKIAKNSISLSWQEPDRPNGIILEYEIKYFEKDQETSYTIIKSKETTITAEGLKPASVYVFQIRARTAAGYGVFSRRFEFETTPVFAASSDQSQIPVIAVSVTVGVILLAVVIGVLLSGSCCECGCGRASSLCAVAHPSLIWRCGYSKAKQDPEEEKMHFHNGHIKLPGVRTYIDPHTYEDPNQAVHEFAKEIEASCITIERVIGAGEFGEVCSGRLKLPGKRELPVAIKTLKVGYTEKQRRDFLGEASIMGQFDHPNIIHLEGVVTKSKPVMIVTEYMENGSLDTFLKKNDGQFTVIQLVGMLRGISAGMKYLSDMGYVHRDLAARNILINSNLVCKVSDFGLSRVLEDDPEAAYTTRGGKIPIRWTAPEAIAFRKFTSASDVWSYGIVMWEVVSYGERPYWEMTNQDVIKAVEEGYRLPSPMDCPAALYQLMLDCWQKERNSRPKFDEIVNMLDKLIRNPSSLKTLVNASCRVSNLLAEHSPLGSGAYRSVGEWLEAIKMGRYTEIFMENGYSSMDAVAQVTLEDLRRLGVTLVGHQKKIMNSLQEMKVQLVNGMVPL

These are yes or no findings as the source states them, for the method shown. Some entries that bind do so weakly or less than the wild type.

B1: VH5/VK2 humanized 11C12 antibody (antibody, human IgG1, kappa, V domains shown)
VH: EVQLVESGGGLVQPGGSLKLSCAASGFTFSTFGIHWVRQAPGKGLEWVAYISGASTTIYYADSVKGRFTISRDNSKNTLYLQMNSLRAEDTAVYYCARYGTSFPYGLDYWGQGTLVTVSS
VL: DIVMTQSPDSLAVSLGERATINCKASQSVDYDGDSYMNWYQQKPGKAPKLLIYGASNLESGIPDRFSGSGSGTDFTLTISRLEPEDAASYYCQQSNEDPFTFGQGTKLEIKR
With B1, the binding result in assay [1], in assay [2], in assay [3] and in assay [4] was “binds” in each case.

B2: VH6/VK5 humanized 11C12 antibody (antibody, human IgG1, kappa, V domains shown)
VH: EVQLVESGGGLVQPGGSLKLSCAASGFTFSTFGIHWVRQAPGKGLEWVASISGASTTIYYADSVKGRFTISRDNSKNTLYLQMNSLRAEDTAVYYCARYGTSFPYGLDYWGQGTLVTVSS
VL: DIVMTQSPDSLAVSLGERATINCKSSQSVDYDGDSYMNWYQQKPGKAPKLLIYGASNLESGIPDRFSGSGSGTDFTLTISRLEPEDAAVYYCQQSNEDPFTFGQGTKLEIKR
On to B2, for which the binding entry in assay [1] and in assay [3] was “binds” throughout.

B3: VH5/VK4 humanized 11C12 antibody (antibody, human IgG1, kappa, V domains shown)
VH: EVQLVESGGGLVQPGGSLKLSCAASGFTFSTFGIHWVRQAPGKGLEWVAYISGASTTIYYADSVKGRFTISRDNSKNTLYLQMNSLRAEDTAVYYCARYGTSFPYGLDYWGQGTLVTVSS
VL: DIVMTQSPDSLAVSLGERATINCKSSQSVDYDGDSYMNWYQQKPGKAPKLLIYGASNLESGIPDRFSGSGSGTDFTLTISRLEPEDAASYYCQQSNEDPFTFGQGTKLEIKR
B3: the binding result in assay [1], in assay [2], in assay [3] and in assay [4] was “binds” throughout.

B4: VH5/VK5 humanized 11C12 antibody (antibody, human IgG1, kappa, V domains shown)
VH: EVQLVESGGGLVQPGGSLKLSCAASGFTFSTFGIHWVRQAPGKGLEWVAYISGASTTIYYADSVKGRFTISRDNSKNTLYLQMNSLRAEDTAVYYCARYGTSFPYGLDYWGQGTLVTVSS
VL: DIVMTQSPDSLAVSLGERATINCKSSQSVDYDGDSYMNWYQQKPGKAPKLLIYGASNLESGIPDRFSGSGSGTDFTLTISRLEPEDAAVYYCQQSNEDPFTFGQGTKLEIKR
With B4, the binding entry in assay [1] and in assay [3] was “binds” each time.

B5: VH6/VK3 humanized 11C12 antibody (antibody, human IgG1, kappa, V domains shown)
VH: EVQLVESGGGLVQPGGSLKLSCAASGFTFSTFGIHWVRQAPGKGLEWVASISGASTTIYYADSVKGRFTISRDNSKNTLYLQMNSLRAEDTAVYYCARYGTSFPYGLDYWGQGTLVTVSS
VL: DIVMTQSPDSLAVSLGERATINCKASQSVDYDGDSYMNWYQQKPGKAPKLLIYGASNLESGIPDRFSGSGSGTDFTLTISRLEPEDAAVYYCQQSNEDPFTFGQGTKLEIKR
As for B5, the binding entry in assay [1] and in assay [3] was “binds” in each case.

B6: VH6/VK4 humanized 11C12 antibody (antibody, human IgG1, kappa, V domains shown)
VH: EVQLVESGGGLVQPGGSLKLSCAASGFTFSTFGIHWVRQAPGKGLEWVASISGASTTIYYADSVKGRFTISRDNSKNTLYLQMNSLRAEDTAVYYCARYGTSFPYGLDYWGQGTLVTVSS
VL: DIVMTQSPDSLAVSLGERATINCKSSQSVDYDGDSYMNWYQQKPGKAPKLLIYGASNLESGIPDRFSGSGSGTDFTLTISRLEPEDAASYYCQQSNEDPFTFGQGTKLEIKR
Take B6: the binding result in assay [1] and in assay [3] was “binds” throughout.

B7: VH6/VK2 humanized 11C12 antibody (antibody, human IgG1, kappa, V domains shown)
VH: EVQLVESGGGLVQPGGSLKLSCAASGFTFSTFGIHWVRQAPGKGLEWVASISGASTTIYYADSVKGRFTISRDNSKNTLYLQMNSLRAEDTAVYYCARYGTSFPYGLDYWGQGTLVTVSS
VL: DIVMTQSPDSLAVSLGERATINCKASQSVDYDGDSYMNWYQQKPGKAPKLLIYGASNLESGIPDRFSGSGSGTDFTLTISRLEPEDAASYYCQQSNEDPFTFGQGTKLEIKR
On to B7, for which the binding result in assay [1] and in assay [3] was “binds” in each case.

B8: chimeric VH0/VK0 antibody (murine 11C12 variable regions, human IgG1/kappa constant regions) (antibody, V domains shown)
VH: EVTLKESGGGLVQPGGSRKLSCAASGFTFSTFGIHWVRQAPEKGLEWVAYISGASTTIYYADTVKGRFTISRDNPKNTLFLQMTSLRSEDTAMYYCARYGTSFPYGLDYWGQGTSVTVSS
VL: DIVMTQSPGSLAVSLGQRATISCKASQSVDYDGDSYMNWYQQKPGQPPKLLIYGASNLESGIPARFSGSGSGTDFTLNIHPVEEEDAASYYCQQSNEDPFTFGSGTKLEIKR
With B8, the binding entry in assay [5] and in assay [3] was “binds” throughout.

B9: VH4/VK1 humanized 11C12 antibody (antibody, human IgG1, kappa, V domains shown)
VH: EVQLVESGGGLVQPGGSLKLSCAASGFTFSTFGIHWVRQAPGKGLEWVAYISGASTTIYYADTVKGRFTISRDNSKNTLYLQMNSLRAEDTAVYYCARYGTSFPYGLDYWGQGTLVTVSS
VL: DIVMTQSPGSLAVSLGERATINCKASQSVDYDGDSYMNWYQQKPGKAPKLLIYGASNLESGIPDRFSGSGSGTDFTLTISRLEEEDAASYYCQQSNEDPFTFGQGTKLEIKR
As to B9, the binding result in assay [1] and in assay [3] was “binds” throughout.

B10: VH6/VK1 humanized 11C12 antibody (antibody, human IgG1, kappa, V domains shown)
VH: EVQLVESGGGLVQPGGSLKLSCAASGFTFSTFGIHWVRQAPGKGLEWVASISGASTTIYYADSVKGRFTISRDNSKNTLYLQMNSLRAEDTAVYYCARYGTSFPYGLDYWGQGTLVTVSS
VL: DIVMTQSPGSLAVSLGERATINCKASQSVDYDGDSYMNWYQQKPGKAPKLLIYGASNLESGIPDRFSGSGSGTDFTLTISRLEEEDAASYYCQQSNEDPFTFGQGTKLEIKR
Turning to B10, the binding result in assay [1] and in assay [3] was “binds” in each case.

B11: VH0/VK1 (antibody, human IgG1, kappa, V domains shown)
VH: EVTLKESGGGLVQPGGSRKLSCAASGFTFSTFGIHWVRQAPEKGLEWVAYISGASTTIYYADTVKGRFTISRDNPKNTLFLQMTSLRSEDTAMYYCARYGTSFPYGLDYWGQGTSVTVSS
VL: DIVMTQSPGSLAVSLGERATINCKASQSVDYDGDSYMNWYQQKPGKAPKLLIYGASNLESGIPDRFSGSGSGTDFTLTISRLEEEDAASYYCQQSNEDPFTFGQGTKLEIKR
In the case of B11, the binding entry in assay [3] is on record as “binds”.

B12: VH5/VK1 humanized 11C12 antibody (antibody, human IgG1, kappa, V domains shown)
VH: EVQLVESGGGLVQPGGSLKLSCAASGFTFSTFGIHWVRQAPGKGLEWVAYISGASTTIYYADSVKGRFTISRDNSKNTLYLQMNSLRAEDTAVYYCARYGTSFPYGLDYWGQGTLVTVSS
VL: DIVMTQSPGSLAVSLGERATINCKASQSVDYDGDSYMNWYQQKPGKAPKLLIYGASNLESGIPDRFSGSGSGTDFTLTISRLEEEDAASYYCQQSNEDPFTFGQGTKLEIKR
Turning to B12, the binding result in assay [1] and in assay [3] was “binds” in each case.

B13: VH4/VK5 humanized 11C12 antibody (antibody, human IgG1, kappa, V domains shown)
VH: EVQLVESGGGLVQPGGSLKLSCAASGFTFSTFGIHWVRQAPGKGLEWVAYISGASTTIYYADTVKGRFTISRDNSKNTLYLQMNSLRAEDTAVYYCARYGTSFPYGLDYWGQGTLVTVSS
VL: DIVMTQSPDSLAVSLGERATINCKSSQSVDYDGDSYMNWYQQKPGKAPKLLIYGASNLESGIPDRFSGSGSGTDFTLTISRLEPEDAAVYYCQQSNEDPFTFGQGTKLEIKR
Turning to B13, the binding entry in assay [1] and in assay [3] was “binds” in each case.

B14: VH4/VK4 humanized 11C12 antibody (antibody, human IgG1, kappa, V domains shown)
VH: EVQLVESGGGLVQPGGSLKLSCAASGFTFSTFGIHWVRQAPGKGLEWVAYISGASTTIYYADTVKGRFTISRDNSKNTLYLQMNSLRAEDTAVYYCARYGTSFPYGLDYWGQGTLVTVSS
VL: DIVMTQSPDSLAVSLGERATINCKSSQSVDYDGDSYMNWYQQKPGKAPKLLIYGASNLESGIPDRFSGSGSGTDFTLTISRLEPEDAASYYCQQSNEDPFTFGQGTKLEIKR
With B14, the binding result in assay [1], in assay [2], in assay [5] and in assay [3] was “binds” throughout.

B15: VH4/VK2 humanized 11C12 antibody (antibody, human IgG1, kappa, V domains shown)
VH: EVQLVESGGGLVQPGGSLKLSCAASGFTFSTFGIHWVRQAPGKGLEWVAYISGASTTIYYADTVKGRFTISRDNSKNTLYLQMNSLRAEDTAVYYCARYGTSFPYGLDYWGQGTLVTVSS
VL: DIVMTQSPDSLAVSLGERATINCKASQSVDYDGDSYMNWYQQKPGKAPKLLIYGASNLESGIPDRFSGSGSGTDFTLTISRLEPEDAASYYCQQSNEDPFTFGQGTKLEIKR
Regarding B15, the binding entry in assay [1] and in assay [3] was “binds” each time.

B16: VH1/VK0 (antibody, human IgG1, kappa, V domains shown)
VH: EVTLVESGGGLVQPGGSRKLSCAASGFTFSTFGIHWVRQAPGKGLEWVAYISGASTTIYYADTVKGRFTISRDNSKNTLYLQMNSLRSEDTAMYYCARYGTSFPYGLDYWGQGTSVTVSS
VL: DIVMTQSPGSLAVSLGQRATISCKASQSVDYDGDSYMNWYQQKPGQPPKLLIYGASNLESGIPARFSGSGSGTDFTLNIHPVEEEDAASYYCQQSNEDPFTFGSGTKLEIKR
Regarding B16, the binding entry in assay [3] is listed as “binds”.

The record behind these values is patent publication US20240115722A1.
